# Reference: patent US20190336574A1 (TRUSTEES OF PRINCETON UNIVERSITY, published 2019)
# Results are given in words; binding and its absence hold for the method and conditions named. For part of these data: Binding seen in cells or lysates may run through a third protein. Some results given as binding are weak or reduced against the parent protein; the word gives no strength. Sequences can lack the tags named with a protein.
# T1: GST-MTDH (386-407), wild type (human)
# T1 sequence: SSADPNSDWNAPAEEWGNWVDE
# T2: His6-SND1ΔC (SND1 residues 1-339) (human, UniProt Q7KZF4 1-339)
# T2 construct: not shown: N-terminal His tag (His6, His8 or His) with TEV site, pQlink vector
# T2 sequence: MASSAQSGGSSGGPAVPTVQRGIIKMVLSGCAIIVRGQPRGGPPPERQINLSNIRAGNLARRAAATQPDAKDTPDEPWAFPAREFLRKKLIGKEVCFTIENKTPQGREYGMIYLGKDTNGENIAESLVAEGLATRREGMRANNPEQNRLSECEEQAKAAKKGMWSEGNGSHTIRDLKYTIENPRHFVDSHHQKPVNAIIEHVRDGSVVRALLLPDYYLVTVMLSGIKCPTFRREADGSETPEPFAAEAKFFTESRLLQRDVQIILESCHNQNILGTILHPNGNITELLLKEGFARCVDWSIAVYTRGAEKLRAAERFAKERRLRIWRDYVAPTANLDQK
# How the values were obtained:
# [1] = target: T1, GST-MTDH (386-407), wild type (human); assay: BLI, GST-MTDH (386-407) on anti-GST sensors, His8-SND1 (16-339) 0.1-3.2 µM in solution
# [2] = target: T2, His6-SND1ΔC (SND1 residues 1-339); assay: GST pull-down of His6-SND1ΔC, SDS-PAGE, Coomassie
# From the text: FIGS. 7A-E represents determination of key regions and residues mediating the MTDH-SND1 interaction. (FIG. 7A) Schematics of MTDH fragments and mutants with indicated SND1-binding capability. + indicates binding and − indicates no binding based on results shown below. Two putative nuclear localization signals are residues 432-451 for NLS2 and residues 561-580 for NLS3. […] (FIG. 7B) Pulldown of His6-SND1ΔC by GST-tagged MTDH fragments with indicated boundaries. The bound proteins were examined by SDS-PAGE and visualized by Coomassie blue staining. […] For (FIG. 7B) and (FIG. 7C), 1/10 of the His6-SND1ΔC input was shown, and GST alone was used as a negative control. Representative results of 3 independent experiments are shown. (FIG. 7D, FIG. 7E) Lysates from HEK293T cells expressing the indicated ectopic human SND1, AGO2 or MTDH were immunoprecipitated with anti-Myc and immunoblotted with the indicated antibodies.
# TPM1 comprises mutations D389R, D393R and W394D. TPM2 comprises mutations E399R, E400R and W401D. TPM3 comprises mutations W404D, D406R and E407R. […] The mutations are also set out in Table 3.
Binder,binding [1],binding [2]
"His-SND1 (16-339), SN1/2 domains, wild type (other, also called His6-SND1 harboring the SN1/2 domains; not shown: N-terminal His tag (His6, His8 or His) with TEV site, pQlink vector) VPTVQRGIIKMVLSGCAIIVRGQPRGGPPPERQINLSNIRAGNLARRAAATQPDAKDTPDEPWAFPAREFLRKKLIGKEVCFTIENKTPQGREYGMIYLGKDTNGENIAESLVAEGLATRREGMRANNPEQNRLSECEEQAKAAKKGMWSEGNGSHTIRDLKYTIENPRHFVDSHHQKPVNAIIEHVRDGSVVRALLLPDYYLVTVMLSGIKCPTFRREADGSETPEPFAAEAKFFTESRLLQRDVQIILESCHNQNILGTILHPNGNITELLLKEGFARCVDWSIAVYTRGAEKLRAAERFAKERRLRIWRDYVAPTANLDQK",binds,–
"GST-MTDH (364-582), wild type (other, not shown: N-terminal GST tag with TEV site, pQlink vector) YQWDVSRNQPYIDDEWSGLNGLSSADPNSDWNAPAEEWGNWVDEERASLLKSQEPIPDDQKVSDDDKEKGEGALPTGKSKKKKKKKKKQGEDNSTAQDTEELEKEIREDLPVNTSKTRPKQEKAFSLKTISTSDPAEVLVKNSQPIKTLPPATSTEPSVILSKSDSDKSSSQVPPILQETDKSKSNTKQNSVPPSQTKSETSWESPKQIKKKKKARRET",–,binds
"GST-MTDH (364-582) TPM3 (W404D, D406R, E407R) (protein, not shown: a dimerising Fc or GST) YQWDVSRNQPYIDDEWSGLNGLSSADPNSDWNAPAEEWGNDVRRERASLLKSQEPIPDDQKVSDDDKEKGEGALPTGKSKKKKKKKKKQGEDNSTAQDTEELEKEIREDLPVNTSKTRPKQEKAFSLKTISTSDPAEVLVKNSQPIKTLPPATSTEPSVILSKSDSDKSSSQVPPILQETDKSKSNTKQNSVPPSQTKSETSWESPKQIKKKKKARRET",–,binds
